The structures appear in SMILES notation. Where a name gives a salt, the structure may show the parent alone. This is one part of the list. Most values come without repeats; read them as rough.

We go through 18 compounds from the supplement of paper PMC11542785.

The subject of this assay is Drosophila melanogaster DPAGT1 (Alg7) RNAi eye model. The assay can be described thus: eye size Z-score vs DMSO-treated DPAGT1 model flies; higher = larger eye (suppression of DPAGT1 phenotype). The note with it: 5 uM.
Consider `CCC1(C)CC(=O)NC(=O)C1` [Bemegride], for which the “eye size Z-score” value was -0.74.

For `CCCC(C)(COC(N)=O)COC(=O)NC(C)C` (stereo not drawn) [Carisoprodol], the “eye size Z-score” value was 0.98.

Regarding `C[N+]1(C)CCCC(OC(=O)C(O)(c2ccccc2)c2ccccc2)C1` (stereo not drawn) [Mepenzolate bromide], the “eye size Z-score” value is -0.86.

As to `OC(c1ccccc1)(c1ccccc1)C1CCNCC1` [Azacyclonol], the “eye size Z-score” value came to 0.41.

As to `CCC1(c2ccc(N)cc2)CCC(=O)NC1=O` (stereo not drawn) [Glutethimide, para-amino], the “eye size Z-score” value stood at 0.73.

With `CCN(C)C(=O)Oc1cccc([C@H](C)N(C)C)c1` [Rivastigmine], the “eye size Z-score” value was determined as 0.09.

Take `CC[C@@]1([C@@H]2O[C@@H]([C@H]3O[C@@](O)(CO)[C@H](C)C[C@@H]3C)C[C@@H]2C)CC[C@H]([C@]2(C)CC[C@]3(C[C@H](O)[C@@H](C)[C@@H]([C@@H](C)[C@@H](OC)[C@H](C)C(=O)O)O3)O2)O1` [Monensin sodium salt]: the “eye size Z-score” value amounted to 0.15.

Regarding `CN(C)C(=O)Oc1cc(OC(=O)N(C)C)cc(C(O)CNC(C)(C)C)c1` (stereo not drawn) [Bambuterol hydrochloride], the “eye size Z-score” value stood at 0.63.

For the compound `C[C@]12CC[C@H](O)C[C@@H]1CC[C@@H]1[C@@H]2CC[C@]2(C)C(=O)CC[C@@H]12` [Epiandrosterone], the “eye size Z-score” value is -0.2.

Turning to `CCn1cc(C(=O)O)c(=O)c2cc3c(cc21)OCO3` [Oxolinic acid], the “eye size Z-score” value was 0.16.

On to `CN1[C@@H]2CC[C@H]1C[C@@H](OC1c3ccccc3CCc3ccccc31)C2` [Deptropine citrate], for which the “eye size Z-score” value was 0.58.

`C[C@]12CC[C@@H]3c4ccc(OC(=O)N(CCCl)CCCl)cc4CC[C@H]3[C@@H]1CC[C@@H]2O` [Estramustine]: the “eye size Z-score” value is 0.04.

Consider `COc1ccc(CCN2CCC(Nc3nc4ccccc4n3Cc3ccc(F)cc3)CC2)cc1` [Astemizole], for which the “eye size Z-score” value came out at 0.13.

Take `CC(=O)O[C@H]1C[C@H](O[C@H]2[C@@H](O)C[C@H](O[C@H]3[C@@H](O)C[C@H](O[C@H]4CC[C@@]5(C)[C@H](CC[C@@H]6[C@@H]5C[C@@H](O)[C@]5(C)[C@@H](C7=CC(=O)OC7)CC[C@]65O)C4)O[C@@H]3C)O[C@@H]2C)O[C@H](C)[C@H]1O[C@@H]1O[C@H](CO)[C@@H](O)[C@H](O)[C@H]1O` [Lanatoside C]: the “eye size Z-score” value was 0.

Consider `Oc1cc(Cl)ccc1Oc1ccc(Cl)cc1Cl` [Triclosan], for which the “eye size Z-score” value was determined as 0.53.

In the case of `C[N+]1([O-])[C@@H]2C[C@@H](OC(=O)[C@H](CO)c3ccccc3)C[C@H]1[C@@H]1O[C@@H]12` (stereo partly drawn) [Scopolamin-N-oxide hydrobromide], the “eye size Z-score” value is -1.37.

Take `CCN(CC)C(C)C(=O)c1ccccc1` (stereo not drawn) [Amfepramone hydrochloride]: the “eye size Z-score” value is 0.96.

In the case of `COc1ccc(Cc2nccc3cc(OC)c(OC)cc23)cc1OC` [Papaverine hydrochloride], the “eye size Z-score” value was -0.41.
